Test results from paper PMC9606253.
Results are given in words; binding and its absence hold for the method and conditions named. Binding seen in cells or lysates may run through a third protein. Some binding calls cover weakened binding; strength is not graded here.

Protein sequences, listed by entry. Tags and fused reporters are not part of them.
UniProt Q3TKT4: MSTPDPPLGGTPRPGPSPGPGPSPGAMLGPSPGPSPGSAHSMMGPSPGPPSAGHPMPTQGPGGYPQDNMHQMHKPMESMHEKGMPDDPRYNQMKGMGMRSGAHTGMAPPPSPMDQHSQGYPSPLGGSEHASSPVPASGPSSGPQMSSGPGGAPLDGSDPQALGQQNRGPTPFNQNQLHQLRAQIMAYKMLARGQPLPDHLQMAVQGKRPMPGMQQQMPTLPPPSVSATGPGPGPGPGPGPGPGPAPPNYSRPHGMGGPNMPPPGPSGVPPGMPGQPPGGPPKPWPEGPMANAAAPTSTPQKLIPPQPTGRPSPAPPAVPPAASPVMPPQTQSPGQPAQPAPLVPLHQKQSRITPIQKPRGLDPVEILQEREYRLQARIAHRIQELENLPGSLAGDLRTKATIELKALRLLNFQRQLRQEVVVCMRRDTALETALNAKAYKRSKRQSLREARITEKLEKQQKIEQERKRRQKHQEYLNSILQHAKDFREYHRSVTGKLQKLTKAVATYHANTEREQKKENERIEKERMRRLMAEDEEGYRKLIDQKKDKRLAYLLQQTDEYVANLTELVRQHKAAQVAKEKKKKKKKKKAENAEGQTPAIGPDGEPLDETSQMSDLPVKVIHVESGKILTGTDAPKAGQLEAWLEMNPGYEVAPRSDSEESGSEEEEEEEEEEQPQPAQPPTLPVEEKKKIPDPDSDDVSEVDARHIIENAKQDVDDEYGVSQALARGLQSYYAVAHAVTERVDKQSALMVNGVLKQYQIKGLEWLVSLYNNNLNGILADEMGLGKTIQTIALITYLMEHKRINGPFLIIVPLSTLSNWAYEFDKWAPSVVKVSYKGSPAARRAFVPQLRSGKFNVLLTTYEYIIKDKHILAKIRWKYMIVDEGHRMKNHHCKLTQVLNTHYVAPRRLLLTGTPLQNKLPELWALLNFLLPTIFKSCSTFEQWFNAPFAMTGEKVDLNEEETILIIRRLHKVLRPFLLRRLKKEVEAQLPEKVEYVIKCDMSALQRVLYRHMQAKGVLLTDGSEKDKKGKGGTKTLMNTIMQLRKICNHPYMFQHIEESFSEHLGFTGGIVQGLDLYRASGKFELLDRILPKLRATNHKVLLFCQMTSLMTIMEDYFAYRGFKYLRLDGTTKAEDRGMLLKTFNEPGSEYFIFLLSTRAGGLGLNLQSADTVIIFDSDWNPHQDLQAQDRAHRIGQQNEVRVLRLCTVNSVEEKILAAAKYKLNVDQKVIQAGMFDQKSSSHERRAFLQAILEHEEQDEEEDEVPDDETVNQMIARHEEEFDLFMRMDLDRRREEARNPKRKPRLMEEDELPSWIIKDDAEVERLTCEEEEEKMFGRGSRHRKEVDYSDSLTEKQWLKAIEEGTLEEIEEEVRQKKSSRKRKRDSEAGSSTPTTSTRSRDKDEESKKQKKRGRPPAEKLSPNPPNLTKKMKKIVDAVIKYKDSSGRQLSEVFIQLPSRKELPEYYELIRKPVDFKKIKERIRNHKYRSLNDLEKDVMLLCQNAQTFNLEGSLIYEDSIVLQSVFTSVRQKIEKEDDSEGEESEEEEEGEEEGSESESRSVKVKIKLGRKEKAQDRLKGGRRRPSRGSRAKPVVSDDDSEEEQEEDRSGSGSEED
UniProt Q62280: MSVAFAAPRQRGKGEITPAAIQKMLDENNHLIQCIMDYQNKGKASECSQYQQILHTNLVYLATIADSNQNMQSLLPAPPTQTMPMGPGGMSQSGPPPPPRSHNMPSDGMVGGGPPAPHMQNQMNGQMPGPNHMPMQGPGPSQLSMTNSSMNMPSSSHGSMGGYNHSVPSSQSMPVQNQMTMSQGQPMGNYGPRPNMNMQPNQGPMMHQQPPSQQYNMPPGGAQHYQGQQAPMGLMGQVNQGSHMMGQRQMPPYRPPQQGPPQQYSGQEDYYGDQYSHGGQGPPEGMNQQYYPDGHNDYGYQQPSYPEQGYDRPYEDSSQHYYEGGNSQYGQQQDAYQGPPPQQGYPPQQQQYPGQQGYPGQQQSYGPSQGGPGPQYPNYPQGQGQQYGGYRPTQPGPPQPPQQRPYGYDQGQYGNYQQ
UniProt Q8BW22: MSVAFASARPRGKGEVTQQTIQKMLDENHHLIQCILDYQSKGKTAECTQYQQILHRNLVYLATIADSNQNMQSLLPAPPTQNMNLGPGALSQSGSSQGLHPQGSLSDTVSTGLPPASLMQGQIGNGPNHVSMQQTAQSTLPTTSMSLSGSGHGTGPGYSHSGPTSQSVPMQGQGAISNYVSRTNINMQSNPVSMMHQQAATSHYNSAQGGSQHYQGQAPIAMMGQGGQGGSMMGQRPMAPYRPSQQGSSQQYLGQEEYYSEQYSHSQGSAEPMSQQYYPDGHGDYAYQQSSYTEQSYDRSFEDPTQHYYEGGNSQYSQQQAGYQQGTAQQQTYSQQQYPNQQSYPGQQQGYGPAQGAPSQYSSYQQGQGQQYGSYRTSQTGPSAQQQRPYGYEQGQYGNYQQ
UniProt Q9Z0H3: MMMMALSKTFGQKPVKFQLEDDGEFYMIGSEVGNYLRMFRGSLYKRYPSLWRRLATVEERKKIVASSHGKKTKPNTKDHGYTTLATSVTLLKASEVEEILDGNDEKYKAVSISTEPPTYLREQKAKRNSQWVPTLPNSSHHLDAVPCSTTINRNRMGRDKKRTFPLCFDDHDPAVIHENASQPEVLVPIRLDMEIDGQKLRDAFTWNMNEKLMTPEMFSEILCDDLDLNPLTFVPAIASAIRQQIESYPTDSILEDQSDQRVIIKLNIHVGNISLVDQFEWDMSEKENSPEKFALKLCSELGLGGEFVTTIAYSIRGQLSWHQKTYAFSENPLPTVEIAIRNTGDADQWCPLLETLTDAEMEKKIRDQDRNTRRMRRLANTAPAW
UniProt Q6PDG5: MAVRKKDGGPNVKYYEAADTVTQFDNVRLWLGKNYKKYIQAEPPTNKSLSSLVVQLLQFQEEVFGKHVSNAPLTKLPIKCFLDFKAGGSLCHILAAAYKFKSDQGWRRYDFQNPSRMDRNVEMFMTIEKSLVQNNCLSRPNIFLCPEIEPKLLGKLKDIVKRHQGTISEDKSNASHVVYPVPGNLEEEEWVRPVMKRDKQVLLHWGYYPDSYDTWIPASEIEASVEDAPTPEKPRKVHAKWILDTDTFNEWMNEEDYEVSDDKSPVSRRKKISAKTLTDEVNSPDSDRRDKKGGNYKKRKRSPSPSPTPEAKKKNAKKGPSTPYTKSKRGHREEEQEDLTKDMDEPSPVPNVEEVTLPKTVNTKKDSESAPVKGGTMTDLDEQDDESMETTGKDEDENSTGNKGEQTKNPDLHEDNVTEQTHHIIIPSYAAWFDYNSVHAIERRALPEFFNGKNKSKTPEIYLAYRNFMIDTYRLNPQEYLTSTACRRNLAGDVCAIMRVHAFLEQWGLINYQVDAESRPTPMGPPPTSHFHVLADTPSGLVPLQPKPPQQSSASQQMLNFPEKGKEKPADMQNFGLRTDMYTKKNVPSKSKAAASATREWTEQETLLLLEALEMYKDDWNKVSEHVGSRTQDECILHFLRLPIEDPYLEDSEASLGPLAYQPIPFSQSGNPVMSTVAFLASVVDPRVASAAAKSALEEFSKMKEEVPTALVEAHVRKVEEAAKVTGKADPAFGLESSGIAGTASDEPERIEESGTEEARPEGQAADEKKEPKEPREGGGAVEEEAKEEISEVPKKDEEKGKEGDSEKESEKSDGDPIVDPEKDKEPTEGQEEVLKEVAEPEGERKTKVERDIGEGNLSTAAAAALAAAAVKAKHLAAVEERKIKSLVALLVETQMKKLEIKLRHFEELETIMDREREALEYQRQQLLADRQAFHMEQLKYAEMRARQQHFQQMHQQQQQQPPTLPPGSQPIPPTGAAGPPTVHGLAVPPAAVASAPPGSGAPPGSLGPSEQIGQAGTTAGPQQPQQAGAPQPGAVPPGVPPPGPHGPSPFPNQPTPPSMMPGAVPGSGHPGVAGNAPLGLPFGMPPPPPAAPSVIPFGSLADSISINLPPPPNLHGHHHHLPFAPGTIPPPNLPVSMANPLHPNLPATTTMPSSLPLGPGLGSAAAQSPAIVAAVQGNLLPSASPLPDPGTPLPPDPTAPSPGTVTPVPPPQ
UniProt Q921C3: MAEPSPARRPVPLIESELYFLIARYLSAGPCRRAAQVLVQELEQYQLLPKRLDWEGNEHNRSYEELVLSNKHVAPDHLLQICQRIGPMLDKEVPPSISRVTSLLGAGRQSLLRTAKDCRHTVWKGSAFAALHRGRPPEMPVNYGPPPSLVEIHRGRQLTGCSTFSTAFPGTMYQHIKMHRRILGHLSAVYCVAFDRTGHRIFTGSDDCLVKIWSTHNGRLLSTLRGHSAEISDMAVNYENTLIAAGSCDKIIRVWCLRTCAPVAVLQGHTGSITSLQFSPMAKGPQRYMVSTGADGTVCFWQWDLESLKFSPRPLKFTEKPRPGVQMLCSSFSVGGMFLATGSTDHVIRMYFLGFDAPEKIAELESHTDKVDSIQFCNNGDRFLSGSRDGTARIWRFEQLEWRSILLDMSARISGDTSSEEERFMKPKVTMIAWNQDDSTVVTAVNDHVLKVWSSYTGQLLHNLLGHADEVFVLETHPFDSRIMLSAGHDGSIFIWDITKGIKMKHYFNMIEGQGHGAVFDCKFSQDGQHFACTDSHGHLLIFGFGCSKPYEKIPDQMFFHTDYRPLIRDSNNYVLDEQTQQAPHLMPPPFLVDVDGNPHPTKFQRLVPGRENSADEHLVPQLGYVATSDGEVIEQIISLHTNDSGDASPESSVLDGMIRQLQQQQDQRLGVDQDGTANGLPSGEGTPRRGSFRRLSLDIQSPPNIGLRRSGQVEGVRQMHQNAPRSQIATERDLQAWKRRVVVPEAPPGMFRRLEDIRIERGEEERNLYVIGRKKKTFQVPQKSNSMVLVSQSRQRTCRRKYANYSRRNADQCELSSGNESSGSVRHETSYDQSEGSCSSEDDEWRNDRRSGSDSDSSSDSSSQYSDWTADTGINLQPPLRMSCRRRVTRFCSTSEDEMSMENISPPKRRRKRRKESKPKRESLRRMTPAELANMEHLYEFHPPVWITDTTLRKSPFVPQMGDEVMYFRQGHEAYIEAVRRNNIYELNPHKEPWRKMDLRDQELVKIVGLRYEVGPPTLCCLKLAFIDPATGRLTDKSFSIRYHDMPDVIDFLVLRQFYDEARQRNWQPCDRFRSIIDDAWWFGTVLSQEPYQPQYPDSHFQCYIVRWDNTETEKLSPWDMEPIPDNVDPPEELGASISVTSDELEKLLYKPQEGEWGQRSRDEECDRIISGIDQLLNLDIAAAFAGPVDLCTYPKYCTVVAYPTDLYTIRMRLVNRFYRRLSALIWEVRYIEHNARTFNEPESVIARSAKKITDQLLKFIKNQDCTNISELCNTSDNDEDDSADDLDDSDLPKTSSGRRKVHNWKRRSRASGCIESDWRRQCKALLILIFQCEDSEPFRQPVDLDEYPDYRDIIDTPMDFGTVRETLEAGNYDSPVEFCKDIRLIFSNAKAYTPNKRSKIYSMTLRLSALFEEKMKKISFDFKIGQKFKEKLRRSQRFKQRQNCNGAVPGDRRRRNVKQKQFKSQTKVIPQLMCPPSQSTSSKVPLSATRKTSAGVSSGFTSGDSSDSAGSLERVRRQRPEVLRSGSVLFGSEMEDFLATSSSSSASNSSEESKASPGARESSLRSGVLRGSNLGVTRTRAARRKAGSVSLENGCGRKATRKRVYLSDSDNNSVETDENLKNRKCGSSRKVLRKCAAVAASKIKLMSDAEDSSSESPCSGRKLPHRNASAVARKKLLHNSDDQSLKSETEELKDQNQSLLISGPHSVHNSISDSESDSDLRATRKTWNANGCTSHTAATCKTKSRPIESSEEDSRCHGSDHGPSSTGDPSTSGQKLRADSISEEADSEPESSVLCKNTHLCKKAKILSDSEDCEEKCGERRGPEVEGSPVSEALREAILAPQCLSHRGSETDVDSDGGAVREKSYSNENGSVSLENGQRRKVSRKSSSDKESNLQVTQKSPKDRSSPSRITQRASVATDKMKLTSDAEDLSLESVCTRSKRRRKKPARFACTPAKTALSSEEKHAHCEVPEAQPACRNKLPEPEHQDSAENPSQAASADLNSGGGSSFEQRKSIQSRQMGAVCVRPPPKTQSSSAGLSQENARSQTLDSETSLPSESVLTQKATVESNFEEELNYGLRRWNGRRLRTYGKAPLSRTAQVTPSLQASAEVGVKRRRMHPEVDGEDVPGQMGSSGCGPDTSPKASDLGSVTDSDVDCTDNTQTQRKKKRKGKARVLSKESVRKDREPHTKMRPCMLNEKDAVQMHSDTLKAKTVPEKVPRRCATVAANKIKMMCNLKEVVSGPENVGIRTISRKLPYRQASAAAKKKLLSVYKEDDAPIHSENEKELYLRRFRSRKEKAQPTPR

Key:
[1] = target: SMARCA4 (mouse (endogenous in mouse brain)) (UniProt Q3TKT4); assay: co-IP; E17.5 Brwd1^FLAG-HA mouse brain nuclear extract (0.25 mg/mL) on antibodies to BAF subunits bound to Protein G Dynabeads, overnight 4 °C; IP buffer 20 mM HEPES pH 7.5, 150 mM KCl, 0.1% Triton X-100, 10% glycerol; BRWD1 detected by HA blot; IgG control
[2] = target: SS18 (mouse (endogenous in mouse brain)) (UniProt Q62280); assay: as above
[3] = target: SS18L1 (mouse (endogenous in mouse brain)) (UniProt Q8BW22); assay: as above
[4] = target: SMARCB1 (mouse (endogenous in mouse brain)) (UniProt Q9Z0H3); assay: co-IP; adult Brwd1^FLAG-HA mouse brain nuclear extract (0.25 mg/mL) on antibodies to BAF subunits bound to Protein G Dynabeads, overnight 4 °C; IP buffer 20 mM HEPES pH 7.5, 150 mM KCl, 0.1% Triton X-100, 10% glycerol; BRWD1 detected by HA blot
[5] = target: SMARCA4 (mouse (endogenous in mouse brain)) (UniProt Q3TKT4); assay: as above
[6] = target: SMARCC2 (mouse (endogenous in mouse brain)) (UniProt Q6PDG5); assay: as above
[7] = target: SS18L1 (mouse (endogenous in mouse brain)) (UniProt Q8BW22); assay: as above

binding [1]: binds
binding [2]: binds
binding [3]: binds
binding [4]: binds
binding [5]: binds
binding [6]: binds
binding [7]: binds
Substance: BRWD1-FLAG-HA (from UniProt Q921C3 1-2304)
